Source: article PMC8950706 (International Journal of Molecular Sciences, 2022)

Assay: peptide made by a vendor (peptide synthesis; Rink amide resin)
Conditions: whole synthesis, RP-HPLC recording the absorbance at 214 nm, acetate

## ChexRPDKPRPYLPRPRPPRPVR-NH2
  final HPLC purity: 97.3%
